PubChem BioAssay AID686937 – Drosophila RNAi Screening Center | 2013

Aim: 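Genes in the fly needed for secretion of protein constitutively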 (primary screen)
Cell system: Drosophila S2 cells expressing secreted horseradish peroxidase
Reagents: long dsRNA against Drosophila genes
Timing: about 5.5 days (5 days dsRNA, then 12 h reporter induction)
Conditions: reporter expression induced after 5 days of dsRNA, read 12 h later; inducer not stated
Measured: 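After 5 days of dsRNA and 12 h of reporter induction, medium peroxidase read by chemiluminescence and scored as per-plate z-score; higher values mean more reporter released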
Reading the numbers: z-score: higher = more reporter secreted into medium
In all, the deposit lists about 23,000 reagents; shown is an unselected part of those with a known target gene and a result. 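Reduced-secretion tags in replicate 1 do not always agree with the z-scores; no criterion for assigning the tags was given.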 Names joined by + are all predicted targets of the reagent. Further read-outs or replicates are left out here. The record does not give: the amount of reagent.

| Gene | DRSC id | z-score, replicate 1 |
| --- | --- | --- |
| yellow-d | DRSC04589 | 0.58 |
| CG13168 | DRSC06295 | 0.14 |
| Gs2 | DRSC20250 | 0.5 |
| CG13428 | DRSC06390 | 0.46 |
| CG14442 | DRSC17935 | -0.27 |
| Gr94a | DRSC13597 | 0.46 |
| 5-HT2A | DRSC11990 | 0.14 |
| Obp19d | DRSC20569 | 0.1 |
| CG34050 (retired record) | DRSC09067 | -2.51 |
| CG4161 | DRSC01930 | -0.1 |
| Cyp6a13 | DRSC07375 | 0.61 |
| SsRbeta | DRSC11290 | 0.24 |
| Arp8 | DRSC20059 | 0.36 |
| snRNA:U1:95Cc + snRNA:U1:95Cb | DRSC13641 | 0.81 |
| OdsH | DRSC20263 | 0.69 |
| CG10920 | DRSC17765 | -0.2 |
| RpLP0 | DRSC11878 | -3.34 |
| RpLP0 | DRSC22110 | -1.21 |
| CG8617 | DRSC07223 | 0.11 |
| Etfb | DRSC16324 | 0.21 |
| sns | DRSC06423 | -2.47 |
| sns | DRSC07687 | -0.84 |
| sns | DRSC07688 | 0.76 |
| sns | DRSC07689 | 0.23 |
| sns | DRSC07691 | 0.23 |
| sns | DRSC07692 | -0.02 |
| Cpn | DRSC16613 | 0.31 |
| Mal-B2 | DRSC02417 | 0.76 |
| Tak1 | DRSC20390 | 0.36 |
| Tak1 | DRSC20561 | -0.23 |
| Tak1 | DRSC20562 | 0.6 |
| CG12106 | DRSC17805 | 0.45 |
| CG43292 | DRSC08883 | 0.51 |
| CG43292 | DRSC21542 | 0.09 |
| fok | DRSC02103 | 0.43 |
| Vps25 | DRSC06486 | -0.04 |
| Hsepi | DRSC04986 | 0.34 |
| Pbp45 | DRSC16509 | 0.61 |
| Kmn1 | DRSC19666 | -0.89 |
| CG6686 | DRSC02979 | -2.43 |
| Ccp84Aa | DRSC12586 | 0.32 |
| gogo | DRSC10070 | 0.27 |
| gogo | DRSC10071 | 0.43 |
| CG2059 | DRSC18203 | 0.17 |
| sinu | DRSC09752 | 0.7 |
| Ir67c | DRSC22097 | 0.35 |
| Syt14 | DRSC12331 | 0.33 |
| upd1 | DRSC20358 | 0.18 |
| CG8343 | DRSC04905 | 0.06 |
| CG2915 | DRSC06842 | 0.49 |
| CG6696 | DRSC20004 | -0.25 |
| Ugt305A1 | DRSC08541 | 0.11 |
| CG3062 | DRSC18572 | 0.09 |
| CG1582 | DRSC19732 | 0.24 |
| CG43077 | DRSC19168 | -0.11 |
| CG4041 | DRSC18339 | 0.08 |
| Coq2 | DRSC16516 | 0.33 |
| Coq2 | DRSC21366 | 0.86 |
| snsl | DRSC00543 | 0.4 |
| CG10444 | DRSC05990 | -5.81 |
| YL-1 | DRSC02765 | -0.27 |
| AcCoAS | DRSC11477 | 0.44 |
| AcCoAS | DRSC11603 | 0.3 |
| AcCoAS | DRSC22850 | 0.13 |
| CG15514 | DRSC15053 | 0.27 |
| CG32652 (retired record) | DRSC18942 | 0.57 |
| CG32652 (retired record) | DRSC22662 | -0.4 |
| Hs3st-B | DRSC20067 | 0.53 |
| CG15756 | DRSC19721 | 0.01 |
| Ccp84Ad | DRSC12589 | 0.56 |
| Ccp84Ad | DRSC22854 | 0.58 |
| CG1927 | DRSC08146 | 0.1 |
| alc | DRSC07062 | 0.09 |
| alc | DRSC21464 | 1.38 |
| CG4199 | DRSC18519 | 0.31 |
| CG4199 | DRSC21314 | 0.28 |
| His2B:CG33870 + His2B:CG33868 + His2B:CG33882 + 21 more | DRSC03757 | -3.52 |
| CG12780 | DRSC06169 | 0.32 |
| CG10654 | DRSC09767 | 0.46 |
| Bdp1 | DRSC03192 | 0.15 |
| CG30096 | DRSC21744 | -0.63 |
| CG3655 | DRSC17676 | 0.55 |
| CG3655 | DRSC18181 | 0.06 |
| CG3655 | DRSC18477 | 0.14 |
| CG3655 | DRSC22688 | 0.45 |
| Atg2 | DRSC08273 | -0.05 |
| CG34166 | DRSC02482 | 0.64 |
| CG7272 | DRSC10795 | 0.24 |
| WRNexo | DRSC16278 | 0.09 |
| CG31817 | DRSC01537 | -0.16 |
| CG31817 | DRSC01538 | 0.65 |
| CG31817 | DRSC22476 | -0.09 |
| ova | DRSC02879 | 0.26 |
| CG34290 | DRSC13660 | 0.15 |
| Myo95E | DRSC15821 | 0.49 |
| CG12343 | DRSC06135 | 0.1 |
| CG9536 | DRSC03254 | 0.39 |
| Ebp | DRSC04048 | 0.09 |
| NijC | DRSC14851 | 0.14 |
| CG9664 | DRSC00725 | 0.47 |
| CG1638 | DRSC15132 | 0.2 |
| CG14151 | DRSC10153 | 0.35 |
| His4r | DRSC16703 | -2.94 |
| CG43339 | DRSC02466 | 0.39 |
